Data as given in PubChem BioAssay AID652259 (Drosophila RNAi Screening Center, 2013).
The deposit covers about 22,000 reagents; shown is an unselected part of those with a known target gene and a result. Over the whole deposit, 233 (1.1%) were called active. 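Light values are raw, unnormalised plate reads; the ratio scores behind the reporter calls were not deposited.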 Entries without a mark were called inactive. A plus sign joins genes that one reagent is predicted to hit. The record does not give: the amount of reagent, the time to read-out, the dose of the treatment.

Purpose: 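Identify new Wingless signalling regulators in fly cells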 (primary screen)
Cell system: Drosophila clone 8 imaginal disc epithelial cells
Knock-down reagent: long dsRNA against Drosophila genes
Treatment: pathway stimulated by co-transfected Wingless expression plasmid
Detection: 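Firefly luciferase from a tcf-site Wingless reporter, measured alongside co-transfected Renilla luciferase that tracks transfection; pathway stimulated by a Wingless plasmid; the firefly-to-Renilla ratio is not deposited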
Scale: firefly reporter light: higher = more Wg reporter light, before normalisation; Renilla control light: higher = more transfected or surviving cells
Active means: 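Strong candidates differ from their plate mean by at least two out of four per-plate statistical tests; weak candidates meet just one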
Calls: active = candidate regulator (raises or lowers reporter); inactive = not a candidate

gene,DRSC id,"reporter change call, replicate 1","firefly reporter light, replicate 1","firefly reporter light, replicate 2","Renilla control light, replicate 1","Renilla control light, replicate 2"
CG43072 (GeneID 12798436),DRSC11688,,15052,,3862,
HemK2 + Snapin,DRSC00736,,10784,,4312,
HemK2 + Snapin,DRSC00737,,3304,7159,1156,1942
CG5539 (GeneID 37766),DRSC04510,,2560,6562,827,2392
CG32512 (GeneID 33085),DRSC20519,,21272,,12630,
CG32512 (GeneID 33085),DRSC20551,,14560,,9067,
CG32512 (GeneID 33085),DRSC21401,,4.83e5,4.77e5,1.72e5,1.29e5
Cp19 (GeneID 39000),DRSC11121,,1035,7300,816,2570
CG34107 (GeneID 4379852),DRSC14554,,20041,,5485,
CG42749 (GeneID 31438),DRSC18091,,24297,,11099,
CG42749 (GeneID 31438),DRSC18092,,13692,,6997,
CG17751 (GeneID 42336),DRSC15261,,20496,,5501,
CG17751 (GeneID 42336),DRSC22837,,4.81e5,5.65e5,2.31e5,2.89e5
CG13044 (GeneID 39795),DRSC09925,,7763,,3969,
sxc (GeneID 35486),DRSC04911,,2770,4484,585,2108
CG1958 (GeneID 31661),DRSC18196,,18012,,8009,
CG7715 (GeneID 42251),DRSC16301,,16356,,3668,
CG15083 (GeneID 37175),DRSC06514,,8828,,2628,
CG6927 (GeneID 31419),DRSC18407,,1752,8477,884,1410
drongo (GeneID 33263),DRSC00814,Wg reporter activity raised (active),18306,,2404,
asRNA:CR43463 + Pgant35A,DRSC03557,,3717,9836,1529,4672
Strip (GeneID 38412),DRSC08194,,4729,,1984,
Tdh (GeneID 40268),DRSC11788,,5376,,2400,
CG13721 (GeneID 38556),DRSC08330,,1638,7162,1333,3786
CG17568 (GeneID 35198),DRSC02628,,3658,11869,1171,4747
Twdlalpha (GeneID 326223),DRSC19914,,21841,,8360,
Cpr49Ag (GeneID 36353),DRSC07203,,7393,,3895,
CG8360 (GeneID 34122),DRSC03085,,3427,8681,1555,4839
CG11694 (GeneID 40985),DRSC14354,,18019,,4568,
PIG-U (GeneID 34185),DRSC02193,,5147,,1484,
Pi3K92E (GeneID 42446),DRSC16788,,3573,5404,1543,1920
Spn100A (GeneID 43642),DRSC14596,,2496,6971,1015,2691
eca (GeneID 41177),DRSC22290,,7.70e5,7.58e5,1.76e5,2.09e5
Ppi1 (GeneID 43581),DRSC15421,,1478,4178,1106,1856
Obp99a (GeneID 43488),DRSC15303,,3450,,2342,
Ir60b (GeneID 7354400),DRSC04217,,2592,9335,787,2651
CG31342 (GeneID 41592),DRSC15349,,9753,,3425,
CG31342 (GeneID 41592),DRSC16246,,12672,,2387,
CG18265 (GeneID 39947),DRSC10310,,3757,,1868,
Cpr72Ea (GeneID 39814),DRSC10451,,5240,,2269,
OtopLa (GeneID 8674066),DRSC17787,,26470,7.37e5,9013,1.84e5
OtopLa (GeneID 8674066),DRSC18133,,26297,,12184,
RfC3 (GeneID 34423),DRSC03411,,3332,5146,1098,2293
Pop4 (GeneID 38889),DRSC10955,,1451,6505,1061,2473
CG11374 (GeneID 33163),DRSC00306,,2768,6713,1121,2634

Only “firefly reporter light, replicate 1” (3 entries from above):
Cpr49Ag (GeneID 36353) [DRSC07203]	7393
CG8360 (GeneID 34122) [DRSC03085]	3427
CG11694 (GeneID 40985) [DRSC14354]	18019

The list goes on.
gene,DRSC id,"reporter change call, replicate 1","firefly reporter light, replicate 1","firefly reporter light, replicate 2","Renilla control light, replicate 1","Renilla control light, replicate 2"
thoc5 (GeneID 37810),DRSC04327,,9909,,3145,
Bulli (GeneID 38734),DRSC10974,,1376,5440,1069,2115
CG17378 (GeneID 33951),DRSC02616,,2512,3696,1264,1845
blp (GeneID 41937),DRSC15757,,17141,,4007,
CG33468 (GeneID 2768833),DRSC22940,,5.22e5,5.75e5,2.34e5,1.96e5
cerv (GeneID 32492),DRSC19681,,15107,,7859,
ValRS-m (GeneID 39023),DRSC10535,,1491,5888,1297,1578
Rep (GeneID 37246),DRSC07526,,7517,,3040,
ProtA (GeneID 34866),DRSC03372,,3700,6228,920,3334
CG33271 (GeneID 2768972),DRSC10583,,6568,,2006,
pho (GeneID 43819),DRSC17219,,16343,,11832,
CG1307 (GeneID 40814),DRSC12492,,6729,,1961,
CG43610 (GeneID 12798580),DRSC00949,,23312,,9397,
CG14811 (GeneID 31132),DRSC17962,,22841,,16688,
Amyrel (GeneID 36863),DRSC05920,,12202,,4297,
hzg (GeneID 39748),DRSC10549,Wg reporter activity raised (active),9484,,1456,
trn (GeneID 39491),DRSC11407,,6040,,2976,
asRNA:CR43259 + CG31089,DRSC15934,,21622,,19526,
bab1 (GeneID 38116),DRSC08379,Wg reporter activity raised (active),7026,,4579,
bab1 (GeneID 38116),DRSC08709,,6409,,3527,
bab1 (GeneID 38116),DRSC21882,,5.60e5,5.68e5,1.94e5,2.50e5
wa-cup (GeneID 40892),DRSC12511,,14166,,3664,
KLHL18 (GeneID 41458),DRSC15496,,7920,,2323,
PGRP-LE (GeneID 32534),DRSC20137,,2928,5941,1101,2074
Tb (GeneID 43212),DRSC15815,,8906,,2716,
CG6138 (GeneID 34454),DRSC02933,,3629,6640,929,3356
piwi (GeneID 34521),DRSC03592,,7290,,2469,
Regnase-1 (GeneID 42394),DRSC14278,,2864,6317,1048,1616
